According to PubChem BioAssay AID1671190 (National Center for Advancing Translational Sciences (NCATS), 2021):
Where “and” joins values, the source holds several entries; their conditions need not be identical. Equal values may be shown once. The campaign covered roughly 580,000 compounds. About 6,100 (1.1%) were called active. Inconclusive results, whose numbers are uncertain, are shown with a selection of clear calls. The call rests on the fitted dose curve; in most records, active means well fitted inhibition curve with a large enough effect; inconclusive means small, poorly fitted or top-dose-only effect, or another doubt; inactive means no such curve, though single readings can be large or run the other way. Where the call is inconclusive, the potency comes from a doubtful curve fit.

Sequences of proteins named here, by UniProt entry; tags and fusion partners are left off. A change or cut given only in a name is not applied to a line headed by its entry.
UniProt P18054: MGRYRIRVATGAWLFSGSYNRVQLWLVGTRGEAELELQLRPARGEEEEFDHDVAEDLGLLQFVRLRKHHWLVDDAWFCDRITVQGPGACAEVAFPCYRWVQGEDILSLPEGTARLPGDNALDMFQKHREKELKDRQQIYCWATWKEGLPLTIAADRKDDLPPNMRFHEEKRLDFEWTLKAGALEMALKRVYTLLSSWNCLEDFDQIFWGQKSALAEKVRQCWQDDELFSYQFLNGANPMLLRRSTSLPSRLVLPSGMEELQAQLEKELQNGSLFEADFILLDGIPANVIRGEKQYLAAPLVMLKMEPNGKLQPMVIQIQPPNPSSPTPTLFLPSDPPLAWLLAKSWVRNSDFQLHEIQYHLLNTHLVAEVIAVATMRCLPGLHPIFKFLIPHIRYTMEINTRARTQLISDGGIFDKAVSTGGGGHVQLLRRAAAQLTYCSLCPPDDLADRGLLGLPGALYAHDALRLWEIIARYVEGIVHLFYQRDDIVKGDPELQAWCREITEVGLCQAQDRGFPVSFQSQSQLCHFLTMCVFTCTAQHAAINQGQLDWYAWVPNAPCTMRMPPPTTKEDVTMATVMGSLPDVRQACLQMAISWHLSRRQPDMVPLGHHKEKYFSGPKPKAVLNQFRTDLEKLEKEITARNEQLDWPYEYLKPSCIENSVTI

biological target: Polyunsaturated fatty acid lipoxygenase ALOX12 (Homo sapiens) (UniProt P18054); test: Primary qHTS assay for inhibitors of human arachidonate 12S-lipoxygenase (ALOX12): Round 2; conditions: purified 12hLO, xylenol orange hydroperoxide absorbance; series mostly up to 108 µM
Method in brief: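 Purified human 12hLO at 150 nM in 25 mM Hepes, 0.01% Triton X-100, pH 7.0, preincubated 15 min at room temperature with compound. Reaction started with 40 uM arachidonic acid, 30 min at room temperature. Hydroperoxide measured by Fe-xylenol orange, 573/405 nm absorbance ratio.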
Potency means the concentration at half of the fitted maximal effect.

| Structure (SMILES) | Potency |
| --- | --- |
| CCn1cnc2c1c(=O)n(CC(=O)OCc1ccc(C(C)C)cc1)c(=O)n2Cc1ccccc1 | inconclusive: 79.4 µM [inhibitor, partial curve, poor fit] |
| Cc1cc2cc(CN(Cc3cccs3)C(=S)NCC3CCCO3)c(=O)[nH]c2cc1C (configuration not stated) | inconclusive: 50.1 µM [inhibitor, partial curve, poor fit] |
| CC(C)(C)c1ccc(C2(C)NC(=O)N(Cc3coc(-c4cccs4)n3)C2=O)cc1 (configuration not stated) | inactive |
| CC1CN(C)C(C)C/C1=N/Oc1ccccc1[N+](=O)[O-] (configuration not stated) | inactive |
| Cc1ccc(NC(=O)C(C)n2nnc3sc4c(c3c2=O)CCCC4)cc1Cl (configuration not stated) | inconclusive: 79.4 µM [inhibitor, partial curve, poor fit] |
| Clc1ccc(C2CC(c3cccs3)n3ncnc3N2)c(Cl)c1 (configuration not stated) | inactive |
| CN(CC(=O)NC(=O)NCc1ccco1)Cc1cccs1 | inactive |
| COc1cc2nc(C3CCC3)n(NC(=O)C3CCC(OC)CC3)c(=O)c2cc1OC (configuration not stated) | inactive |
| Cc1ccc(CNC(=O)CN2C(=O)NC(C)(c3ccc(Cl)cc3)C2=O)cc1 (configuration not stated) | inconclusive: 25.1 µM [inhibitor, partial curve, poor fit] |
| Cc1ccc2nc(-c3sc4nc(C)ccc4c3N)[nH]c2c1 | active: 35.5 µM |
| CC(=O)NCCNc1nc(-c2c(C)noc2C)nc2ccccc12 | inconclusive: 5.01 µM [inhibitor, full curve, poor fit] |
| Oc1ccc(NCc2ccccc2OCc2ccccc2F)cc1 | inactive |
| Cc1ccc(CN(C(=O)COc2ccc(Br)cc2)C2CCS(=O)(=O)C2)o1 (configuration not stated) | inactive |
| CCOc1ccc(S(=O)(=O)/N=C(/c2ccccc2)N(C)C)cc1 | inactive |
| CSCc1nc2sc(C(=O)Nc3nc(C)cs3)c(C)c2c(=O)[nH]1 | inactive |
| CCN(c1cccc(C)c1)S(=O)(=O)c1ccc(OC)c([N+](=O)[O-])c1 | inconclusive: 28.2 µM [inhibitor, single point] |
| CCOC(=O)C(C#N)C(C#N)c1ccccc1 (configuration not stated) | inactive |
| COC(=O)[C@]12CCCCC=C1N(Cc1ccco1)C(=O)[C@H](CC(=O)NCc1ccc(C)o1)C2 | inconclusive: 44.7 µM [inhibitor, partial curve, poor fit] |
| CCc1ccc(NC(=O)CSc2nc3ccccc3c(=O)n2CCNC(C)=O)cc1 | inactive |
| O=C(CCCc1ccccc1)N1CCCC1c1noc(COc2ccc(F)cc2)n1 (configuration not stated) | inconclusive: 79.4 µM [inhibitor, single point] |
| Cc1ccc(-n2nc3c(=O)n(C(C)C(=O)NCCCc4ccccc4)nc(C)c3c2C)cc1 (configuration not stated) | inactive |
| Cc1ccc(/C=C/C(=O)Nc2ccc([N+](=O)[O-])c(NC(=O)/C=C/c3ccc(C)o3)c2)o1 | active: 6.31 µM |
| Cc1ccc(S(=O)(=O)c2[nH]c(-c3ccccc3)nc2SCC(=O)NC(C)(C)C)cc1 | inconclusive: 50.1 µM [inhibitor, single point] |
| CCOC(=O)c1sc(NC(C)=O)c(C(=O)OCC)c1C | inactive |

| Structure (SMILES) | Potency |
| --- | --- |
| CC(=O)c1ccc(NC(=O)CCCSc2nc(-c3ccco3)cc(C(F)(F)F)n2)cc1 | inactive |
| OCCNC(=S)Nc1ccc(F)cc1 | inconclusive: 89.1 µM [inhibitor, single point] |
| CCOC(=O)c1cccc(Nc2cc(-c3ccccc3)ncn2)c1 | inconclusive: 100 µM [inhibitor, single point] |
| COc1ccc(-c2c3c(=O)n(C)c(=O)n(C)c3cn2C2CCCCC2)cc1 | inconclusive: 89.1 µM [inhibitor, partial curve, poor fit] |
| CCN(Cc1ccccc1)S(=O)(=O)c1cc(C(=O)NC2CCCCCC2)ccc1OC | inactive |
| CCc1cc2c(=O)c(-c3nncn3-c3ccccc3)coc2cc1OCC(=O)NC(C(=O)O)C(C)C (configuration not stated) | inconclusive: 89.1 µM [inhibitor, partial curve, poor fit] |
| Cc1ccc(NC(=O)c2cc3c(cc2C)OCCCO3)c(C)c1 | inactive |
| OC[C@@H]1[C@@H](c2ccc(Cl)cc2)C(c2ccc(F)cc2)=NN1c1ccccc1 | inconclusive: 141 µM [inhibitor, single point] |
| Cc1cc(C)cc(N2C(=O)C3CCCN3C2=S)c1 (configuration not stated) | inactive |
| CCOC(=O)C1CCCCN1Cc1cccc(F)c1 (configuration not stated) | inconclusive: 0.224 µM [inhibitor, full curve, poor fit] |
| CC(C)n1nccc1N(Cc1ccc(Cl)cc1)S(=O)(=O)c1ccccc1 | inactive |
| CCOC(=O)c1[nH]c2ccc(OC)cc2c1NC(=O)CN1CCSCC1 | inactive |
| CCOc1ccc(CN2CCC(Cc3ccccc3)CC2)cc1 | inconclusive: 1.78 µM [inhibitor, full curve] |
| NC(=O)c1c(NC(=O)c2cnccn2)sc2c1CCCC2 | inactive |
| CC(C)(C)c1cc(OC(=O)C2CCCC2)ccc1O | inconclusive: 79.4 µM [inhibitor, single point] |
| O=C(O)c1cccc(C2CCCN(C(=O)c3ccccc3-c3ncn[nH]3)C2)c1 (configuration not stated) | inactive |
| CCc1ccc(CN2CCCC(CNS(=O)(=O)c3ccc(OC)cc3)C2)cc1 (configuration not stated) | inactive |
| O=C(CN1C(=O)CCC1=O)Nc1ccc2c3c(cccc13)CC2 | inconclusive: 31.6 µM [inhibitor, partial curve, poor fit] |
| COc1cc(C(=O)Nc2cccc(SC)c2)cc(Br)c1O | inconclusive: 89.1 µM [inhibitor, partial curve, poor fit] |
| CC(C)C[C@H](NC(=O)c1nc[nH]c1C(=O)NCC(=O)OCc1ccccc1)C(=O)OCc1ccccc1 | inactive |
| Cc1ccccc1NC(=S)N(Cc1cccs1)C1CCCC1 | inactive |
| CC(=O)N1CSCC1C(=O)NNS(=O)(=O)c1ccccc1 (configuration not stated) | inconclusive: 89.1 µM [inhibitor, single point] |
| Cc1ccc2nc(N3C(=O)CNC3=S)sc2c1 | inconclusive: 3.16 µM [inhibitor, full curve, poor fit] |
| C[C@H]1CN([C@@H](C)CO)C(=O)CCCn2cc(nn2)CO[C@@H]1CN(C)C(=O)c1ccc(N2CCN(C)CC2)cc1 | inconclusive: 112 µM [inhibitor, single point] |

| Structure (SMILES) | Potency |
| --- | --- |
| CCn1c(C)[n+](CC)c2ccc(C(=O)N(C)c3ccccc3)cc21 | inconclusive: 100 µM [inhibitor, single point] |
| O=c1c2nccnc2[nH]c(=S)n1Cc1ccccc1 | inactive |
| CCN(C[C@H]1N[C@@](Cc2ccccc2)(C(=O)OC)[C@H]2C(=O)N(Cc3ccccc3)C(=O)[C@@H]12)C(=O)Nc1ccc(C)cc1 | inconclusive: 10 µM [inhibitor, partial curve, poor fit] |
| CCCCCc1ccc(N=Cc2ccc(OCC(C)CC)cc2O)cc1 (configuration not stated) | inconclusive: 0.251 µM [inhibitor, full curve, poor fit] |
| COc1cccc(NC(=O)N2CCN(c3ccc(C(F)(F)F)cn3)CC2)c1 | inconclusive: 100 µM [inhibitor, single point] |
| COc1ccc(NC(=O)CN2CCN(S(=O)(=O)c3ccc(C(C)C)cc3)CC2)cc1OC | inconclusive: 35.5 µM [inhibitor, partial curve, poor fit] |
| Cc1ccc2cc(C#N)c(NCCNC(=O)C3CCC3)nc2c1C | inactive |
| Cc1cccnc1-n1c(C)c(C)c2c1ncn1nc(Cc3ccccc3)nc21 | inconclusive: 50.1 µM [inhibitor, partial curve, poor fit] |
| CCSc1ccc([C@@H]2[C@H]3C(=O)N(C)C(=O)[C@H]3[C@]3(C(=O)OC)CCCCN23)cc1 | inactive |
| FC(F)(F)c1cccc(NC(=S)NCC2COc3ccccc3O2)c1 (configuration not stated) | inconclusive: 50.1 µM [inhibitor, partial curve, poor fit] |
| C=CCOc1ccc(CNn2cn[nH]c2=S)cc1 | inconclusive: 50.1 µM [inhibitor, partial curve, poor fit] |
| COc1ccc(-c2csc3ncnc(N4CCN(Cc5ccccc5)CC4)c23)cc1 | inactive and inconclusive: 44.7 µM [inhibitor, partial curve, poor fit] |
| Cc1ccc(C=Nc2ccc(-c3ccc(N=Cc4ccc(C)s4)cc3)cc2)s1 | inactive |
| O=C(Cc1ccc2ccccc2c1)Nc1cccc2ncccc12 | inactive |
| O=C(NCC1(N2CCOCC2)CCCCCC1)c1cnn(-c2nccc(-c3ccco3)n2)c1C1CC1 | inactive |
| N#C/C(=C\c1c[nH]c2ccccc12)C(N)=O | inconclusive: 63.1 µM [inhibitor, partial curve, poor fit] |
| CCn1nc(C)c(C(=O)Nc2cc(Oc3ccc(Cl)cc3)cc([N+](=O)[O-])c2)c1C | inconclusive: 56.2 µM [inhibitor, partial curve, poor fit] |
| COc1cccc(C(=O)NCc2nc(-c3cccc(NC(=O)c4ccoc4C)c3)oc2C)c1OC | inactive |
| CCCCn1nc(C(=O)N(C)Cc2ccccc2F)c2ccccc2c1=O | inactive |
| CCOC1OC(=O)C[C@H]1NC(=O)[C@@H]1CCCN1C(=O)[C@@H](NC(=O)c1ccc(N)c(Cl)c1)C(C)(C)C (some centres not stated) | inconclusive: 6.11 µM [inhibitor, partial curve, poor fit] |
| CC1=NN(c2nc(C)cc(C)n2)C(=O)C1Cc1cccc(Cl)c1 (configuration not stated) | inactive |
| CCCCc1cc(=O)oc2c(C)c(OCC(=O)NCc3ccncc3)ccc12 | inactive |
| CNc1nc2c(-c3ccc(Cl)cc3)nnn2c2ccccc12 | inconclusive: 89.1 µM [inhibitor, single point] |
| Cc1ccc(C)c(N2CCN(S(=O)(=O)c3cccc4cccnc34)CC2)c1 | inconclusive: 50.1 µM [inhibitor, partial curve, poor fit] |

Four compounds out of the list, sorted by formula weight, rising:

| Structure (SMILES) | Potency |
| --- | --- |
| CCn1c(C)[n+](CC)c2ccc(C(=O)N(C)c3ccccc3)cc21 | inconclusive: 100 µM [inhibitor, single point] |
| CCCCn1nc(C(=O)N(C)Cc2ccccc2F)c2ccccc2c1=O | inactive |
| FC(F)(F)c1cccc(NC(=S)NCC2COc3ccccc3O2)c1 (configuration not stated) | inconclusive: 50.1 µM [inhibitor, partial curve, poor fit] |
| CCCCc1cc(=O)oc2c(C)c(OCC(=O)NCc3ccncc3)ccc12 | inactive |
